# Results reported in article doi:10.1101/2022.06.14.496170.
# Protein sequences, listed by entry. Tags and fused reporters are not part of them. Lines headed by an entry give the natural chain unless they say otherwise; changes in a name come on top. Chains listed by the source or under a name are the forms on record and can include a tag or linker.
# PICLN (Arabidopsis thaliana) (Q9LVA7, form named): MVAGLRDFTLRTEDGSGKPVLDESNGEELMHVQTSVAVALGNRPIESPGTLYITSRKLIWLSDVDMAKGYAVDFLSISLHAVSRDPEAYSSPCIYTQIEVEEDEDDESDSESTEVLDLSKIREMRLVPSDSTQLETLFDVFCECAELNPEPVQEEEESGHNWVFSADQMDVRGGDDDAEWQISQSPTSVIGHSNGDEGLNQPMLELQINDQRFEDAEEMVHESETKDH
# UniProt Q9SSF1: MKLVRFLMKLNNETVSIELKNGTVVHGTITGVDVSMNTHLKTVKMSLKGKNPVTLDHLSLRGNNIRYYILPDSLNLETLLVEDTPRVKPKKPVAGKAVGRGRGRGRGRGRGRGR
# No constants are given. Whether binding was seen depends on the method and setting. Some entries that bind do so weakly or less than the wild type.
# Molecular target: PICLN (Arabidopsis thaliana) (Arabidopsis thaliana) (UniProt Q9LVA7)
# Assay: two-hybrid
row,Molecule,binding
1,SmD1A (Arabidopsis thaliana) (from UniProt Q9SSF1 1-114),binds
2,"SmD3B (Arabidopsis thaliana) (protein, UniProt Q9LM92 1-131) MSRSLGIPVKLLHEASGHIVTVELKSGELYRGSMIECEDNWNCQLEDITYTAKDGKVSQLEHVFIRGSKVRFMVIPDILKHAPMFKRLDARIKGKSSSLGVGRGRGAMRGKPAAGPGRGTGGRGAVPPVRR",binds
